Data on 107 sequences can be found in PubChem BioAssay AID1347426 (Functional Genomics Laboratory (NCATS/FGL), 2020).

The whole screen tested about 31,000 sequences, of which about 1,400 (4.5%) were called active.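 The calls were made as follows: active = median seed-adjusted z-score above 1 or below -1; inactive = the rest.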 The list shows a part of the results.

The test is described as follows: Novel Modifiers of Survival Motor Neuron (SMN) Protein: Gene Identification via Genome-wide siRNA Screen.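 Also: luminescence tracks full-length SMN protein made from the SMN2 reporter.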 The following applies: HEK293T SMN2-luciferase reporter, siRNA knockdown, 72 h; actives lie on both sides. An outline of the steps:
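Luciferase signal, proportional to full-length SMN made from an SMN2 cDNA reporter in stable HEK293T cells, was read 72 h after siRNA reverse transfection. Values were expressed as MAD scores after non-targeting-control normalization and log10 conversion; seed analysis flagged off-targets.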
On the technique in general: Reporter assays use an easily measured gene product as a stand-in for the process of interest.
Consider GUAUUAUACUCGGAUAACATT against PSMD12, for which the median seed-adjusted z-score is inactive: 0.956.

For the sequence CAAGGAGUUUUACCCAGUATT against CYP4Z1, the median seed-adjusted z-score is inactive: -0.139.

As for GAUGAGUCAAGGACCUACATT against FAM53B, the median seed-adjusted z-score is inactive: -0.00535.

With AGAUGAUCGUGAGUCAGCUTT against LITAF, the median seed-adjusted z-score was inactive: 0.0771.

As for AGAUCAAGGUACCCUUUGATT against ATHL1, the median seed-adjusted z-score was inactive: 0.

As for GGCUGUGAAUAAUAUAGCUTT against BTF3L4, the median seed-adjusted z-score is inactive: 0.143.

In the case of GCUUCAUUCUGAUGUAUGATT against RAB3B, the median seed-adjusted z-score was inactive: -0.705.

With AGAUACUUACAUAGUUUUUTT against NACA, the median seed-adjusted z-score was inactive: 0.117.

Take GUGUCUUACUGGUGGAUGATT against PTGER4: the median seed-adjusted z-score was inactive: -0.289.

GUUCAUGAAAGAUCGGUUATT against CDC14A: the median seed-adjusted z-score is inactive: 0.117.

As for GGAAUGCUGCAUCAAUAGATT against BTBD1, the median seed-adjusted z-score is inactive: 0.0192.

GCAAAGGCACUGAAUCGAATT against MAP4K5: the median seed-adjusted z-score was inactive: -0.309.

As for GGAAUUAUUACAAGGUAAATT against EIF3E, the median seed-adjusted z-score was inactive: 0.549.

On to CGUGGGCUCUAUCUACUAUTT against PUF60, for which the median seed-adjusted z-score was active: 2.26.

Turning to CCAUAGCUGAUGUUAUUCUTT against NDUFS1, the median seed-adjusted z-score was inactive: -0.217.

GGCACAAUUUCAACUCCAUTT against GPR35: the median seed-adjusted z-score is active: -1.46.

For the sequence CACCAGUCAUCCAACUUGATT against RANBP9, the median seed-adjusted z-score is inactive: -0.467.

Consider CUGUUGCACUUCACAUUUUTT against TRIP13, for which the median seed-adjusted z-score was active: 1.

As for GAAGGAUCACUCUCAGAUATT against LRRC47, the median seed-adjusted z-score was inactive: 0.00856.

Consider AGAUCAUCGAGACAGAUUUTT against SLC39A3, for which the median seed-adjusted z-score is inactive: 0.0298.

GGACGUGCUUCAUUAACAATT against ALDH9A1: the median seed-adjusted z-score was inactive: -0.297.

With CGAAUACAGGCAAGCUGUATT against RASL11A, the median seed-adjusted z-score was inactive: -0.294.

On to GGCAAAACAUUAUUGGGCATT against FIGN, for which the median seed-adjusted z-score was inactive: -0.2.

GCCUUUUAACAAACCCAUATT against FUT6: the median seed-adjusted z-score is inactive: 0.282.

On to GAGAAGGCUUUGACGAAAATT against PKD2L2, for which the median seed-adjusted z-score was inactive: -0.0723.

On to GGAGGUUUGUAGAAUAUGUTT against XYLT1, for which the median seed-adjusted z-score was inactive: -0.274.

For CUGUGGUGAUUGCAUCAAATT against SLC20A1, the median seed-adjusted z-score was inactive: -0.186.

In the case of CCUGGAACAUCAUGAGGUATT against ADCY10, the median seed-adjusted z-score is inactive: -0.573.

Take CCUUCGACCAUAAUCCAGATT against KATNAL2: the median seed-adjusted z-score is inactive: -0.85.

On to UCCCAGGACACAUCACAUATT against RRAS, for which the median seed-adjusted z-score is inactive: -0.102.

As for GCAGAGCGGAAGUAAGGAUTT against AFMID, the median seed-adjusted z-score was inactive: -0.515.

As to CAGGCGAUCUUUGCGCAGATT against ONECUT2, the median seed-adjusted z-score was inactive: -0.696.

CCGAAGAAGCAAUAUCGAATT against CRKRS: the median seed-adjusted z-score is active: -1.16.

As to CGUGGAGGCCUAUAUCGAUTT against GTPBP3, the median seed-adjusted z-score is inactive: -0.197.

As for AGAUGUACAACUCACCAUATT against SLC25A28, the median seed-adjusted z-score is inactive: -0.459.

As to AGCACAUCUCGGUCCUCCATT against MAPK8IP2, the median seed-adjusted z-score was inactive: 0.284.

As for CGGCAAAAAGGUAGUCUAATT against ZNF32, the median seed-adjusted z-score is inactive: 0.034.

On to CGAUAAGAAUAGCAGGGAATT against SF4, for which the median seed-adjusted z-score is inactive: 0.498.

Turning to AGAACUCGGUGAUGAAAUATT against S1PR5, the median seed-adjusted z-score was inactive: 0.301.

Regarding CAAAGACCCUUUAUUCGAATT against BTBD10, the median seed-adjusted z-score is inactive: 0.695.

On to GGUAGACAAUAUUACUACATT against ARHGAP12, for which the median seed-adjusted z-score is inactive: 0.525.

As to CCAUGAGCAUAACAAGAUUTT against ZBTB47, the median seed-adjusted z-score is inactive: 0.

Turning to CCAAGAACCCGGAGAAGUATT against EXOC7, the median seed-adjusted z-score was inactive: -0.231.

In the case of CAGGAUCUGUUCAACCAAATT against VWA2, the median seed-adjusted z-score was inactive: 0.584.

For the sequence GAAAUGACAGUGAAUAGUATT against STX19, the median seed-adjusted z-score is inactive: 0.143.

Regarding CACUCUAAUUUUAAGACCATT against CALR3, the median seed-adjusted z-score is inactive: -0.0828.

CACAUUUAAUGGAAACCGATT against AJAP1: the median seed-adjusted z-score is inactive: 0.488.

Take CAUCAUCCCUUAGUCUACATT against WNK1: the median seed-adjusted z-score is inactive: -0.121.

Consider GGUCCAUUUUCUUCGCAAUTT against DDX55, for which the median seed-adjusted z-score was inactive: 0.507.

Take GCUCAAUCCUUUCCCUUCATT against PROM2: the median seed-adjusted z-score is inactive: 0.188.

As for GAAACUUGAUGGCUCCGAATT against OXT, the median seed-adjusted z-score was inactive: 0.553.

With CCUGAGCUGUGCAACCAAUTT against SLC12A8, the median seed-adjusted z-score was inactive: 0.113.

Turning to CGAGUUUGCUUGGUCAGAATT against SF3B1, the median seed-adjusted z-score is active: -3.65.

In the case of UUAUCGCAAGUGAUAUUUATT against ZXDB, the median seed-adjusted z-score is inactive: 0.186.

As to GCACCAUUCGAAGCUCAGATT against SLC9A1, the median seed-adjusted z-score was inactive: 0.

Regarding GCUCCAUCCUUAUUCAACATT against ZIK1, the median seed-adjusted z-score is inactive: -0.0627.

With GACCCAGUCUGAGUGUCUGTT against ZNF655, the median seed-adjusted z-score is inactive: -0.156.

Take CCGACCAUCGAAGACUUUUTT against RAP2B: the median seed-adjusted z-score was inactive: -0.22.

Take CGGUAGCUGCUGACUCUAUTT against AKAP6: the median seed-adjusted z-score is inactive: -0.0978.

GCACGGUCACUGUUAGAUATT against FLNB: the median seed-adjusted z-score is inactive: 0.243.

For GAAGUGACGUGGACCUGGATT against ELF3, the median seed-adjusted z-score is inactive: 0.43.

As to GCAGAACUGUAUCAAGGAATT against NDUFB10, the median seed-adjusted z-score was inactive: -0.39.

As to GCAGUGUGACGGUAGCUUUTT against ZNF79, the median seed-adjusted z-score was inactive: -0.351.

As for AACCAAUGUUGGACAACUATT against ZNF99, the median seed-adjusted z-score is inactive: 0.0778.

Turning to GGCAGUGGUUUUGACAACATT against CTBP1, the median seed-adjusted z-score was inactive: 0.105.

As for CGAUGUCUACGGCUUCUCATT against PEF1, the median seed-adjusted z-score is inactive: 0.651.

Take CUACUAGCAUAUCCACAAATT against POLR3B: the median seed-adjusted z-score is inactive: -0.151.

As to CACCUACAUCACCUAUUAATT against PPP1R12A, the median seed-adjusted z-score was inactive: -0.103.

In the case of GGAGCUAUUUGACAGCGAATT against PPP2R5E, the median seed-adjusted z-score was inactive: 0.421.

For the sequence GGCAUCUACUUGUGAGUAATT against NUP155, the median seed-adjusted z-score is inactive: 0.141.

For the sequence GCACGCGGCUAUACAAUCATT against SLC25A34, the median seed-adjusted z-score is inactive: -0.256.

On to GAGACUGACUGUUAGCACATT against LPAR1, for which the median seed-adjusted z-score is inactive: 0.514.

As to CGAUACCAGCUGUCGGUUUTT against LONRF1, the median seed-adjusted z-score was inactive: 0.743.

Consider GCAAGAUCCUCAUCGUGGATT against HDAC4, for which the median seed-adjusted z-score is inactive: -0.0988.

GCAUCAACGUGUGUGGACUTT against WFIKKN1: the median seed-adjusted z-score was inactive: 0.

For the sequence GUCUUAUGGUGCAAACUUUTT against NDUFS4, the median seed-adjusted z-score is inactive: 0.336.

In the case of CAAGUACUCAGAGACGGAUTT against SCD5, the median seed-adjusted z-score is inactive: -0.167.

On to GGGCCUUUCUUGGACUGAUTT against PHF7, for which the median seed-adjusted z-score was inactive: 0.425.

As to GCUCCAACAUGGUCUACAATT against POLE, the median seed-adjusted z-score was active: -1.55.

Turning to GGACUACACCUACUGGGUATT against PTPRH, the median seed-adjusted z-score was inactive: 0.175.

As for CAAUCUAACUUUUCGGACATT against CLCA2, the median seed-adjusted z-score is inactive: 0.669.

For GAACCUUCGGGAGAACCUUTT against FKBPL, the median seed-adjusted z-score was active: -1.11.

As to CCAAGAGGAGAGUCCUAUATT against ZNF639, the median seed-adjusted z-score was inactive: 0.182.

Turning to ACAUGUGCUUGACAAGUUUTT against POLR1D, the median seed-adjusted z-score is inactive: -0.0409.

As to GCCGCCUACUCAUUCUACATT against NMT2, the median seed-adjusted z-score was inactive: 0.494.

For GGACUUCGAGUGUGACUAUTT against SORCS3, the median seed-adjusted z-score is inactive: -0.151.

For GUGGGUACCAUAUCGCUUATT against SMG1, the median seed-adjusted z-score is inactive: -0.106.

Take CACUCUACGUCUUUACGGATT against HHATL: the median seed-adjusted z-score was inactive: 0.497.

On to CGGGAGUCAUAACACUAAATT against HIBCH, for which the median seed-adjusted z-score was inactive: 0.0655.

Take AGAUCAGACAGCAACGAUATT against RHD: the median seed-adjusted z-score was inactive: 0.496.

Take AGAACUCUCUGAUUGUCAUTT against GPR1: the median seed-adjusted z-score is inactive: 0.0609.

With GGCCUAUGCUAAUCAUUCUTT against FANCA, the median seed-adjusted z-score was inactive: 0.418.

Take GCAACUAUGAUAUUUAUGATT against UGT2B17: the median seed-adjusted z-score is inactive: -0.0203.

On to CAGUGUUAGUACUCGAUAATT against EXT2, for which the median seed-adjusted z-score was inactive: -0.127.

GCAAUAUGUUUAUCCAUAATT against CSE1L: the median seed-adjusted z-score is inactive: 0.425.

As for UCAUGUACCUCAGAAGUCATT against CLEC4C, the median seed-adjusted z-score was inactive: 0.664.

With CUACCGAGAUUUUAGAUGATT against POLE, the median seed-adjusted z-score is active: -1.55.

As to AGCAGAGGCUUAUCCCUGUTT against RND2, the median seed-adjusted z-score is inactive: -0.0613.

In the case of CACCUGAGCAGCAAAAGAATT against PACSIN1, the median seed-adjusted z-score was inactive: -0.681.

Regarding CGAGUGCGCGAGAAACAGATT against COX7A1, the median seed-adjusted z-score was inactive: -0.47.

As to ACAGGGCUCUGGAUAUUGATT against AP3D1, the median seed-adjusted z-score was inactive: 0.213.

GCCCAUGGGAAAUACCAGATT against NPR2: the median seed-adjusted z-score was inactive: 0.0712.

As for GCACCAUUGACGUGUCAAATT against POLD2, the median seed-adjusted z-score is inactive: 0.97.

For the sequence GUAGAGUAGUGUUAGAUGATT against IRAK3, the median seed-adjusted z-score was inactive: 0.155.

Regarding CCGUAGUGCUGAUGAACCATT against TCEA1, the median seed-adjusted z-score is inactive: 0.

As to AGCUCGAUAUCACAGAGAATT against CES7, the median seed-adjusted z-score is inactive: -0.374.

In the case of GGCUCAUCUUCUACCGGAATT against SHMT2, the median seed-adjusted z-score was inactive: -0.0453.
